The values that follow come from patent US7223547B2, “Polypeptides having a functional domain of interest and methods of identifying and using same” (Cytogen Corporation, priority 1995, dated 2007).

Chains of the proteins cited; added tags and fusions are not shown.
UniProt P07948: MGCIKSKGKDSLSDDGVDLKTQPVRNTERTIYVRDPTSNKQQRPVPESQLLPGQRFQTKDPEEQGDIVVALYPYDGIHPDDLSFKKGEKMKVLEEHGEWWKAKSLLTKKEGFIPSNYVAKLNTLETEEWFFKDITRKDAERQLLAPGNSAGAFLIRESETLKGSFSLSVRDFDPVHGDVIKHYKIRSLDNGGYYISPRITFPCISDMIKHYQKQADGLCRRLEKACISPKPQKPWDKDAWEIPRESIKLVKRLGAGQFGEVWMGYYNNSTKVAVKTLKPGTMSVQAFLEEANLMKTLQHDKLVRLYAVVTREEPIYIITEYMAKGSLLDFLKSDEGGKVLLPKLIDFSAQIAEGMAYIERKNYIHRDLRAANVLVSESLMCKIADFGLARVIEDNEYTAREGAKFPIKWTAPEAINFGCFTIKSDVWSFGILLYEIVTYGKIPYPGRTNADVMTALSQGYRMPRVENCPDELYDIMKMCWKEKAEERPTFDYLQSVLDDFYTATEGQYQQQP
UniProt P06241: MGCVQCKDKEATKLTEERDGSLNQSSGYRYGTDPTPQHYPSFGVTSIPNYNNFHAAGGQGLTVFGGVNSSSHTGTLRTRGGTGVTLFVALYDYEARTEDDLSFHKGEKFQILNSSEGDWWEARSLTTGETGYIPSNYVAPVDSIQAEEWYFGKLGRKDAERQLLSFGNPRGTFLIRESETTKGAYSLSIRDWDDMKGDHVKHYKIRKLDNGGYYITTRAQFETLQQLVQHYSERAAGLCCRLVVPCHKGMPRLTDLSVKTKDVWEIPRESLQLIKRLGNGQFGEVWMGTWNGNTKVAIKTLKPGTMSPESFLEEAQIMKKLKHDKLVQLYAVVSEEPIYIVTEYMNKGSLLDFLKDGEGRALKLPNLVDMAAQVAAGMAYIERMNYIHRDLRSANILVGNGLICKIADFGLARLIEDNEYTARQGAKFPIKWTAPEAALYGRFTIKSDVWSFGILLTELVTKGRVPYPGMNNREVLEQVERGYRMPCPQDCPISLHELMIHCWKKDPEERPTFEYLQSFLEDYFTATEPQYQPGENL

One test addresses SH3P16 (Lyn) (human) (UniProt P07948). Nature of the test: plaque-lift screen of human prostate cancer and bone marrow cDNA expression libraries with biotinylated peptide complexed to SA-AP (T12SRC.4 also present in the initial screens).
A further test addresses SH3P15 (Fyn) (human) (UniProt P06241). The description is as above.

These are yes or no findings as the source states them, for the method shown. Some entries that bind do so weakly or less than the wild type.

Take GILAPPVPPRNTR (N-terminal biotin; C-terminal amide (NH2)) [T12SRC.1 (biotin-…-NH2)]: the binding result with SH3P16 (Lyn) (human) and in the test with SH3P15 (Fyn) (human) was “binds” each time.
